Measured values from publication doi:10.1101/2025.09.17.676719.
No constants are given. Whether binding was seen depends on the method and setting. Binding seen in cells or lysates may run through a third protein. Some results given as binding are weak or reduced against the parent protein; the word gives no strength. For some assays here: Tags and fused reporters may be left off the sequences shown.

Protein sequences, listed by entry. Tags and fused reporters are not part of them.
UniProt Q6PD10: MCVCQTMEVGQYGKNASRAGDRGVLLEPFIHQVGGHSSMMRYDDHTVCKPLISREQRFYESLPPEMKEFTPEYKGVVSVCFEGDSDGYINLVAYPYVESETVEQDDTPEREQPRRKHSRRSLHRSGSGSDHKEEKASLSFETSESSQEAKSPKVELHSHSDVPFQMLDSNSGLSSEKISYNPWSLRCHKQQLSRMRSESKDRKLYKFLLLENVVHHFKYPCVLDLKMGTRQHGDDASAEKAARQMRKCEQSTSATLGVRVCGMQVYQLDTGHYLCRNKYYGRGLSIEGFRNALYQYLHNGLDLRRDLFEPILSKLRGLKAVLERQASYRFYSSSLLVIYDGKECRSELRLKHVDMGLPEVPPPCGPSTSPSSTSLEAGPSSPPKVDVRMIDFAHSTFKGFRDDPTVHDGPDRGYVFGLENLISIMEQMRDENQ
UniProt Q9UHH9: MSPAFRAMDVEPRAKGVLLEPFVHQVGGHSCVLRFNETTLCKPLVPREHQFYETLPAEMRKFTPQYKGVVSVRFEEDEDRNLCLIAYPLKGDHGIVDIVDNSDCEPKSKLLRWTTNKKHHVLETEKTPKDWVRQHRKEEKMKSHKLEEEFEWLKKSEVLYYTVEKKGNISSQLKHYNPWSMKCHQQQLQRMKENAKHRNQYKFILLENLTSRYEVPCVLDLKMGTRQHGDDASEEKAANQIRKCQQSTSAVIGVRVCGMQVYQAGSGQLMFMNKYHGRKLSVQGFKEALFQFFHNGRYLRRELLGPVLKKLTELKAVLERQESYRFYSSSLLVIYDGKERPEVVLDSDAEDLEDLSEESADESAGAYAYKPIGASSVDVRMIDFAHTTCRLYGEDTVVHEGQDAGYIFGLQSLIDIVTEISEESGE
UniProt Q92551: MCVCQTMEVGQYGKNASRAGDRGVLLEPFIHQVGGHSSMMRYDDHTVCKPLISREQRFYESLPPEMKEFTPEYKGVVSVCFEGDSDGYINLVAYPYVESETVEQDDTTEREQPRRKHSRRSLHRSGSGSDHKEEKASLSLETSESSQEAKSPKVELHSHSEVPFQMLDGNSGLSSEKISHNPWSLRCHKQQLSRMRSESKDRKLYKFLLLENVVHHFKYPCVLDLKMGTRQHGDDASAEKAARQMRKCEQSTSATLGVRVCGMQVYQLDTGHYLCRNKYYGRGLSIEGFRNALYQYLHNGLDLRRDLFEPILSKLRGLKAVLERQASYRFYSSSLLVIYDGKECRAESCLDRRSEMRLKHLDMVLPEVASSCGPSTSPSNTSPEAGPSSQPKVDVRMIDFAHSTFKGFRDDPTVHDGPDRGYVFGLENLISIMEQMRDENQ

T1: myc-tagged human IP6K3 (human) (UniProt Q96PC2)
T1 sequence: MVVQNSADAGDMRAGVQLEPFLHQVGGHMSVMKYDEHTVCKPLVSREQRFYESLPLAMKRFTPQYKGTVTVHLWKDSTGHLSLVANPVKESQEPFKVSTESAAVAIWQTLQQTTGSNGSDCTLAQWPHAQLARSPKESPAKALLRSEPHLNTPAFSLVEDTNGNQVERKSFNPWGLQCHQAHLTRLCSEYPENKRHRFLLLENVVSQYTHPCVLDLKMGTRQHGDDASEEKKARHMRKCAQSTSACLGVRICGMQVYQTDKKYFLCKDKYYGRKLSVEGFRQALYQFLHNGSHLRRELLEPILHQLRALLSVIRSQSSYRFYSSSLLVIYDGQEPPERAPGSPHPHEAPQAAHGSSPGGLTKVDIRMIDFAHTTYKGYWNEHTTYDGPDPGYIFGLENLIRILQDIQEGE


Assays:
[1] = biological target: GST-tagged mouse IP6K1 (mouse) (UniProt Q6PD10); assay: pull-down
[2] = biological target: T1, myc-tagged human IP6K3 (human); assay: co-IP
[3] = biological target: myc-tagged human IP6K2 (human) (UniProt Q9UHH9); assay: co-IP
[4] = biological target: myc-tagged mouse IP6K1 (mouse) (UniProt Q6PD10); assay: co-IP
[5] = biological target: endogenous IP6K1 of AGS cells (human (endogenous in AGS)) (UniProt Q92551); assay: co-IP

binding [1]	binding [2]	binding [3]	binding [4]	binding [5]	Binder
binds	no binding	no binding	binds		mouse Syndecan-4 (SDC4) tagged C-terminally with mCherry (protein, UniProt O35988 24-198) ESIRETEVIDPQDLLEGRYFSGALPDDEDAGGSDDFELSGSGDLDDTEEPRPFPEVIEPLVPLDNHIPENAQPGIRVPSEPKELEENEVIPKRAPSDVGDDMSNKVSMSSTAQGSNIFERTEVLAALIVGGVVGILFAVFLILLLVYRMKKKDEGSYDLGKKPIYKKAPTNEFYA
				binds	endogenous Syndecan-4 (SDC4) of AGS cells (protein, UniProt P31431 19-198) ESIRETEVIDPQDLLEGRYFSGALPDDEDVVGPGQESDDFELSGSGDLDDLEDSMIGPEVVHPLVPLDNHIPERAGSGSQVPTEPKKLEENEVIPKRISPVEESEDVSNKVSMSSTVQGSNIFERTEVLAALIVGGIVGILFAVFLILLLMYRMKKKDEGSYDLGKKPIYKKAPTNEFYA
